From PubChem BioAssay AID2685 (National Center for Advancing Translational Sciences (NCATS), 2010) come the findings set out here.

SMILES strings stand for the structures. Some of the results follow. These are further read-outs of the screen, such as a control signal, another cell line or another target. No call is given for them. Compounds called inactive in the main read-out are mostly missing here. Words in brackets tell the shape of the fitted curve; partial curves, single points and poor fits give uncertain potencies.

A short description of this assay: qHTS Assay for Lipid Storage Modulators in Drosophila S3 Cells.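 For cell number change: cells counted by Cell Tracker Red CMTPX staining in the red channel.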 Conditions: BODIPY lipid droplet fluorescence, 18-24 h; for cell number change: measured here: cell count max response, cells fed with added oleic acid. Put shortly:
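Drosophila S3 cells loaded with oleic acid (400 uM, as added) and compounds at several concentrations; lipid droplets imaged by 488-nm laser-scanning cytometry, 500–530 nm intensity and object ratio to cell channel. Percent activity normalized to 20 uM Triacsin C.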

Setting [1] is: measured here: cell number channel AC50, cells fed with added oleic acid.
[2] abbreviates: measured here: lipid fluorescence (Fed channel) AC50, cells fed with added oleic acid.

Regarding `O=S(=O)(Nc1ccccc1N1CCCCC1)c1ccccc1`, the cell number change came to 17.1%. Further, under setting [1], the AC50 is 461 nM [rising, full curve]. Besides, under setting [2], the AC50 is 820 nM [rising, full curve, poor fit].

As to `CC(=O)C1=C(O)C(=O)OC1c1ccc(Cl)cc1` (stereo unspecified), the cell number change was -18.4%. Also, the concentration at half-maximal activity (AC50) under setting [2] was 14600 nM [falling, partial curve, poor fit].

For the molecule `CCN(CC)CC(=O)Nc1sc(C)cc1C(=O)c1ccc(C)cc1`, the cell number change was -7.61%. Under setting [2], the concentration at half-maximal activity (AC50) was 13000 nM [rising, partial curve].

On to `Cc1nc(CC(=O)N2CCN(c3cccc(C)c3C)CC2)cs1`, for which the cell number change worked out at 31.5%. For the same molecule, the AC50 under setting [1] was 3660 nM [rising, single point]. Further, the AC50 under setting [2] is 23100 nM [rising, single point].

As for `Cc1ccccc1C(=O)N1CCC(C(=O)Nc2sccc2C(N)=O)CC1`, the cell number change stood at 5.09%. Under setting [2], the AC50 is 29100 nM [rising, single point].

`CCc1noc(C)c1C(=O)NNC(=O)COc1ccc(C)cc1`: the cell number change amounted to 6%. The half-maximal activity concentration (AC50) under setting [2] was 184 nM [falling, full curve, poor fit].

For `CNC(=O)CO/N=C/c1ccc(N(C)C)cc1`, the cell number change was 12.8%. Besides, the AC50 under setting [2] was 6510 nM [falling, single point].

Take `COc1ccc(CCNC(=O)C2CCN(S(=O)(=O)c3ccc(-n4cnnn4)cc3)CC2)cc1OC`: the cell number change is -0.231%. In addition, the AC50 under setting [2] was 580 nM [falling, single point].

For `COc1cccc(CNC(=O)CCS(=O)(=O)c2ccc3c(c2)NC(=O)CS3)c1`, the cell number change was -14.2%. For the same molecule, the AC50 under setting [2] was 20600 nM [rising, single point].

With `O=C(c1cccs1)N1CCCC(c2nc3c(nnn3Cc3cccc(Cl)c3)c(=O)[nH]2)C1` (stereo unspecified), the cell number change turned out to be 7.83%.

On to `COc1ccccc1C(=O)Nc1ccc2c(c1)C(=O)NC2=O`, for which the cell number change was -1.2%. Also, under setting [2], the AC50 is 29100 nM [falling, single point].

Take `O=C(Cc1cccs1)NCc1ccc(Cl)cc1`: the cell number change is -6.61%.

As for `COc1ccc(N(CC(=O)NCCc2ccccc2)C(=O)c2csnn2)cc1`, the cell number change was -11.1%.

Take `CC(C)[C@H](NC(=O)[C@H](Cc1ccccc1)n1c(=O)[nH]c2ccccc2c1=O)C(=O)N[C@@H](Cc1ccccc1)C(=O)O`: the cell number change is -4.53%. Moreover, the AC50 under setting [2] is 517 nM [falling, single point].

With `CCN(c1c(C)n(C)n(-c2ccccc2)c1=O)S(C)(=O)=O`, the AC50 under setting [1] was 5170 nM [falling, partial curve].

With `O=S(=O)(Nc1cc(F)ccc1F)c1cccc2nonc12`, the cell number change was -11.3%. Further, under setting [2], the AC50 is 31600 nM [rising, single point].

Take `COc1ccc(/C=C/C(=O)NCC(=O)N/N=C/c2cccs2)cc1`: the cell number change was found to be 14.7%. Besides, the AC50 under setting [1] was 6510 nM [rising, single point].

As for `CC(=O)Nc1ccc(Nc2nc3ccccc3n3cnnc23)cc1`, the cell number change was 0.458%. Besides, under setting [2], the AC50 was 65.1 nM [rising, full curve].

Take `O=C(Nc1nnc(C2CC2)s1)C1CCCCC1`: the cell number change is 42.4%. Further, the concentration at half-maximal activity (AC50) under setting [1] is 32600 nM [rising, partial curve, poor fit]. In addition, the AC50 under setting [2] is 23100 nM [rising, partial curve, poor fit].

As to `C=CCSc1nc(N)c2c3c(sc2n1)CN(C)CC3`, the cell number change worked out at 45%. Besides, the AC50 under setting [1] was 20600 nM [rising, single point].

Take `COc1ccc(CCNC(=O)c2ccc(CS(=O)(=O)c3ccc(Br)cc3)o2)cc1OC`: the cell number change stood at 23.6%. In addition, the AC50 under setting [1] was 4.11 nM [rising, full curve, poor fit].

With `CCN1CCN(CCCN(Cc2ccco2)C(=S)Nc2ccc(Cl)cc2)CC1`, the cell number change came out at 51.9%.

As to `CN1CCN(c2ccc(NC(=O)COc3ccc(Cl)cc3Cl)cc2)CC1`, the cell number change worked out at 0.0978%.

Take `CCNc1nc(NCC)nc(OCCNS(=O)(=O)c2ccccc2)n1`: the cell number change was determined as 15.2%. For the same molecule, the AC50 under setting [1] was 461 nM [rising, partial curve, poor fit]. Further, the AC50 under setting [2] is 411 nM [rising, partial curve, poor fit].

Turning to `O=C(COC(=O)c1n[nH]c2ccccc12)Nc1ccccc1`, the AC50 is 6510 nM [rising, single point] under setting [1] and 651 nM [falling, single point] under setting [2].

`C=CCn1c(C)cc(C(=O)CSc2nnc3c(Cl)cc(Cl)cn23)c1C`: the cell number change came out at 31.7%. Also, the half-maximal activity concentration (AC50) under setting [1] was 130 nM [rising, full curve, poor fit].

For the molecule `c1ccc(OCCOc2cccc3cccnc23)cc1`, the cell number change is -6.11%.

Regarding `Cc1ccc(NC(=O)N/C=C/c2ccco2)cc1`, under setting [1], the half-maximal activity concentration (AC50) is 82 nM [rising, full curve, poor fit].

In the case of `O=S1(=O)CCC(n2nccc2-c2ccccc2)C1` (stereo unspecified), the cell number change was -1.42%.

In the case of `COc1ccc(/C(O)=C2/C(=O)C(=O)N(c3ccccn3)C2c2ccc(OC)c(OC)c2)cc1` (stereo unspecified), the cell number change was found to be 6.08%.

For `COC(=O)c1c(/N=C/NOCc2ccc(Cl)cc2)sc2c1CCN(c1ncc(C(F)(F)F)cc1Cl)C2`, the cell number change worked out at 153%. The AC50 under setting [1] is 20600 nM [rising, single point].

For the molecule `O=c1[nH]c(CSc2nc3ccccc3[nH]2)nc2c1cnn2-c1ccccc1`, the cell number change is -2.25%. Moreover, under setting [2], the concentration at half-maximal activity (AC50) is 11600 nM [falling, partial curve].

As for `OC(COc1cccc2ccccc12)CN1CCN(c2cccc(Cl)c2)CC1` (stereo unspecified), the cell number change is -62.2%. Further, the AC50 under setting [1] is 29100 nM [falling, single point]. Further, the AC50 under setting [2] is 4610 nM [falling, partial curve].

Take `CN(CCNC(=O)Cn1c(=O)sc2ccccc21)Cc1ccccc1`: the cell number change was -13.6%.

Consider `C=CCOc1ccc(C2NC(=O)NC(C)=C2C(=O)OC)cc1` (stereo unspecified), for which the cell number change was 101%. Moreover, the AC50 under setting [1] was 16400 nM [rising, single point]. Besides, under setting [2], the AC50 was 18400 nM [rising, partial curve].

`CCOC(=O)c1c(NC(=O)CN2C(=O)NC3(CCCCC3C)C2=O)sc(C(=O)N(C)C)c1C` (stereo unspecified): the cell number change is -1.65%. Also, the AC50 under setting [2] is 1160 nM [rising, full curve].

Regarding `CC(C)c1ccccc1OCCNC(=O)c1cccnc1`, the cell number change came out at 6.1%. Besides, under setting [2], the AC50 was 116 nM [rising, full curve, poor fit].

Turning to `COc1cccc(NC(=O)Nc2ccc3c(c2)N(C)C(=O)CS3)c1`, the AC50 is 1460 nM [rising, partial curve] under setting [1] and 2060 nM [rising, partial curve] under setting [2].

Consider `CCC(=O)N/C=C/n1cnc2cc(C(F)(F)F)ccc21`, for which the cell number change is -22.6%.

For the molecule `COc1ccc(CNC(=O)CCNS(=O)(=O)c2ccc(Br)s2)cc1`, the cell number change turned out to be 6.31%. In addition, under setting [2], the AC50 was 29100 nM [rising, single point].

Consider `Cc1noc(C)c1C(=O)Nc1nc(-c2cc(F)ccc2F)cs1`, for which the cell number change was -2.03%. The concentration at half-maximal activity (AC50) under setting [2] was 29100 nM [rising, single point].

As for `CCn1cc(-c2cc(C(F)(F)F)n3nc(C(=O)O)cc3n2)c(C)n1`, the cell number change turned out to be 11.8%. Also, under setting [2], the AC50 was 6510 nM [rising, single point].

`CC1CCN(C(=O)COC(=O)C23CC4CC(CC(O)(C4)C2)C3)CC1`: the cell number change worked out at 10.7%. Under setting [2], the AC50 was 116 nM [rising, full curve].

For `O=C(COc1ccc(S(=O)(=O)N2CCOCC2)cc1)N1CCN(c2ccccc2)CC1`, the cell number change is -8.41%. In addition, under setting [2], the AC50 was 366 nM [falling, partial curve, poor fit].

On to `CN1CCSc2ccc(C(=O)NCc3ccccc3)cc21`, for which the cell number change was found to be 9.22%.

As to `CC(CO)N1CCS(=O)(=O)CC1` (stereo unspecified), the cell number change is -25.7%. For the same molecule, the AC50 under setting [1] was 65.1 nM [falling, full curve, poor fit]. For the same molecule, the AC50 under setting [2] is 4110 nM [falling, full curve].

In the case of `CCOC(=O)N1CCN(C(=O)CN(C)S(=O)(=O)c2ccc(OC)c(OC)c2)CC1`, the cell number change came to 13.1%. In addition, the AC50 under setting [2] was 146 nM [rising, single point].

With `COc1ccc(-n2cnnc2SCC(=O)Nc2ccc(C(N)=O)cc2)cc1`, the cell number change is -3.97%. Under setting [2], the AC50 is 25900 nM [falling, single point].

For the molecule `C/C(COc1ccccc1)=N\NC(=O)c1nnn(-c2nonc2N)c1CSc1ccccc1`, the cell number change is -5.73%. Besides, the AC50 under setting [1] was 6.51 nM [falling, full curve, poor fit].

Turning to `Cc1ccc(C)c(NC(=O)c2cc(-c3cc(C)c(C)cc3O)n[nH]2)c1`, the cell number change was -34.2%. Besides, the AC50 under setting [1] was 1640 nM [falling, full curve, poor fit].

Regarding `CC(C)(C)CC(=O)N[C@@H](Cc1ccccc1)c1nc2ccccc2[nH]1`, the cell number change was -2.7%. In addition, the AC50 under setting [2] was 6510 nM [falling, single point].

Turning to `O=C(NCCc1ccncc1)Nc1cccc(Cl)c1`, the cell number change worked out at 11.9%. Under setting [1], the AC50 is 411 nM [rising, full curve, poor fit].

For `CCn1c(SCC(=O)N2CCN(c3ccc(F)cc3)CC2)nc2ccccc2c1=O`, the cell number change amounted to 10.7%. Further, the concentration at half-maximal activity (AC50) under setting [2] is 731 nM [rising, full curve].

Turning to `COc1ccc(-n2c(=O)c3ccccc3n(CC(=O)NCc3ccco3)c2=O)cc1`, the cell number change came out at 4.94%. Moreover, the AC50 under setting [2] is 184 nM [falling, full curve, poor fit].

As to `Cc1cccc(NS(=O)(=O)c2ccc3nc(-c4ccccc4)[nH]c3c2)c1C`, the cell number change turned out to be 3.69%. The AC50 under setting [2] was 731 nM [falling, single point].

Regarding `CCc1nnc(NC(=O)C2CC(=O)N(CCc3ccccc3)C2)s1` (stereo unspecified), the cell number change turned out to be 6.58%. Besides, the concentration at half-maximal activity (AC50) under setting [2] is 32600 nM [rising, single point].

In the case of `Cc1ccccc1-c1ocnc1C(=O)Nc1ccccc1NC(=O)c1ccccn1`, the cell number change was 23.7%.

Turning to `COC(=O)Cn1c(=O)c2c(nc3n2CCCN3CCc2ccccc2)n(C)c1=O`, the AC50 under setting [1] is 651 nM [rising, full curve, poor fit].

In the case of `Cc1ccc2oc(-c3ccc(C)c(NC(=O)Cc4cccs4)c3)nc2c1`, the cell number change is 3.17%. Under setting [2], the AC50 was 73.1 nM [falling, full curve, poor fit].

With `O=C(Nc1ccc(S(=O)(=O)Nc2nccs2)cc1)C1CC(=O)N(c2ccccc2)C1` (stereo unspecified), the cell number change turned out to be 9.51%.

On to `O=C(Nc1ccccc1F)c1ccccc1-c1ccc(C(F)(F)F)cc1`, for which the cell number change worked out at 17.8%. Also, the AC50 under setting [1] is 1840 nM [rising, single point]. In addition, the AC50 under setting [2] was 2910 nM [rising, full curve].

For `CC1Cc2cc(S(=O)(=O)N3CCN(C)CC3)ccc2N1C(=O)C1CC1` (stereo unspecified), the cell number change worked out at 11.9%. In addition, the AC50 under setting [2] was 29100 nM [rising, single point].

A word on the AC50: it is the midpoint of the concentration-response curve, whichever way the signal moves. A high value points to weaker potency.
